{"source": "PubChem BioAssay AID330", "about": "(DTP/NCI, 2004)", "test_system": "P388 leukemia ip, CD2F1 mice, survival T/C", "experiment": "NCI In Vivo Anticancer Drug Screen. Data for tumor model P388 Leukemia (intraperitoneal) in CD2F1 (CDF1) mice", "settings": "T/C endpoint: median survival time, higher T/C = longer survival", "key": {"[1]": {"settings": "dose: 50.0 mg/kg/injection, schedule: Q01DX005 (ip), vehicle: Klucel (hydroxypropylcellulose) (HPC)"}, "[2]": {"settings": "dose: 100.0 mg/kg/injection, schedule: Q01DX005 (ip), vehicle: Klucel (hydroxypropylcellulose) (HPC)"}, "[3]": {"settings": "dose: 200.0 mg/kg/injection, schedule: Q01DX005 (ip), vehicle: Klucel (hydroxypropylcellulose) (HPC)"}}, "note": "The list is a part of this screen's results and no random one: it gathers tests that were run many times, whatever their T/C, doses with no T/C, and many T/C values between a quarter and a half above the control. Further doses and runs are listed elsewhere. T/C gives the treated animals as a percentage of the vehicle group. Some doses have a count of surviving animals in place of a T/C: the source files T/C as zero there, which appears to mark a toxic dose or a test without result, not a measured value. Some survivor counts are full or nearly so, which does not show that the dose was tolerated: survival well below the control is almost never listed, so the zero probably covers shortened survival too. Survivors were counted at the toxicity check, usually on the fifth day, unless a day is given; later deaths do not show. Schedule codes are those of the source, taken here to give the interval after Q, in days (D) or hours (H), and the number of doses after X. For survival time, this PubChem deposit counts one and a half times the control or more as active, and values a quarter to a half above the control carry no call in these data; other NCI protocols may use other cut-offs. Some T/C values carry the count of animals alive at the toxicity check (mostly the fifth day); where none is given, no animal had died by that day."}
{"smiles": "COC(=O)c1cc2c(s1)CCC/C(Cl)=C(/C=O)C2", "values": [{"measurement": "survivor count", "setting": "dose: 100.0 mg/kg/injection, schedule: Q01DX009 (ip), vehicle: saline with Tween-80", "value": "2 of 6"}, {"measurement": "survivor count", "setting": "dose: 200.0 mg/kg/injection, schedule: Q01DX009 (ip), vehicle: saline", "value": "0 of 6"}]}
{"smiles": "O=C(NCCNC(=O)C12CC3CC(CC(C3)C1)C2)C12CC3CC(CC(C3)C1)C2", "values": [{"measurement": "survivor count", "setting": "dose: 25.0 mg/kg/injection, schedule: Q01DX005 (ip), vehicle: Klucel (hydroxypropylcellulose) (HPC)", "value": "5 of 5"}, {"measurement": "survivor count", "setting": "[1]", "value": "5 of 5"}, {"measurement": "survivor count", "setting": "[2]", "value": "4 of 5"}, {"measurement": "survivor count", "setting": "[3]", "value": "5 of 5"}]}
{"smiles": "O=C1c2c(Cl)c(Cl)c(Cl)c(Cl)c2C(=O)C2(Cl)CC=CCC12Cl", "note": "(stereo not given)", "values": [{"measurement": "survivor count", "setting": "[1]", "value": "5 of 5"}, {"measurement": "survivor count", "setting": "[2]", "value": "4 of 5"}, {"measurement": "survivor count", "setting": "[3]", "value": "1 of 5"}]}
{"smiles": "O=NN(CCCl)C(=O)Nc1ccccc1", "values": [{"measurement": "T/C", "setting": "dose: 0.13 mg/kg/injection, schedule: Q04DX003 (ip), vehicle: saline with Tween-80", "value": "145 % of control"}, {"measurement": "T/C", "setting": "dose: 0.25 mg/kg/injection, schedule: Q04DX003 (ip), vehicle: saline with Tween-80", "value": "131 % of control [5 of 6 alive]"}, {"measurement": "survivor count", "setting": "dose: 50.0 mg/kg/injection, schedule: Q04DX003 (ip), vehicle: saline with Tween-80", "value": "5 of 6"}, {"measurement": "T/C", "setting": "dose: 100.0 mg/kg/injection, schedule: Q04DX003 (ip), vehicle: saline with Tween-80", "value": "136 % of control [4 of 6 alive]"}, {"measurement": "survivor count", "setting": "dose: 200.0 mg/kg/injection, schedule: Q04DX003 (ip), vehicle: saline with Tween-80", "value": "4 of 6"}, {"measurement": "survivor count", "setting": "dose: 400.0 mg/kg/injection, schedule: Q04DX003 (ip), vehicle: saline with Tween-80", "value": "0 of 6"}]}
